# US7112590B2, “Thrombin inhibitors” (LEK Pharmaceuticals d.d., priority 2000, dated 2006)
# At least one compound was matched to its structure with a doubt left.
# What was measured:
# Format in all cases: biochemical
# [1] = test system: normal pooled human plasma; experiment: Activated partial thromboplastin time (aPTT) coagulation assay; conditions: concentration of inhibitor that doubled the clotting time
# Method: (§1) The Anticoagulant effect of thrombin inhibitors was measured by thrombin time (TT), activated partial thromboplastin time (aPTT), and prothrombin time (PT) assays. Inhibitors were added to normal pooled human plasma over a range of concentrations and clotting was recorded in an automated coagulometer (Fibrintimer, Dade/Behring). The concentration of inhibitor that doubled the clotting time was determined for each assay.
# 2. Activated Partial Thromboplastin Time (aPTT)
# Incubation of plasma with the optimal quantity of phospholipids and a surface activator leads to activation of factors of the intrinsic coagulation pathway. The addition of calcium ions triggers the coagulation process. The time of fibrin clot formation wass measured. aPTT was used as a screening test for coagulation disorders of the intrinsic coagulation pathway. It is prolonged due to intrinsic coagulation factors deficit or due to the presence of inhibitors.
# Pathromtin SL (Dade/Behring): silicon dioxide particles, vegetable phospholipids, sodium chloride (2.4 g/L), Hepes (14.3 g/L, pH 7.6), sodium azide (<1 g/L). […]
# Inhibitor (10 μL working solution, concentrations from 5 μM to 100 μM) and pooled plasma (90 μL) were incubated at 37° C. for 5 minutes. […] The addition of calcium chloride (100 μL) triggered the coagulation process and clot formation was detected with a coagulometer in duplicate.
# [2] = test system: normal pooled human plasma; experiment: Thrombin time (TT) coagulation assay; conditions: concentration of inhibitor that doubled the clotting time, bovine thrombin reagent
# Method: as §1
# In a plasma sample thrombin converts fibrinogen into fibrin and the clot is formed. The time for clot formation was measured. Thrombin time is prolonged due to disorders in fibrin polymerisation or due to the presence of thrombin inhibitors.
# Thrombin (Test Thrombin Reagent, 1.5 IU/mL, Dade/Behring): lyophilized bovine thrombin was dissolved in 5 mL of HEPES (25 mmol/L, pH 7.4). The reagent was warmed to 37° C. prior to the assay.
# Normal pooled plasma: venous blood from 11 apparently healthy volunteers was collected (1 part 0.11 mol/L sodium citrate solution with 9 parts of blood) and centrifuged immediately at 2000×g for 30 minutes at 4° C. Plasma was removed, pooled and stored in aliquots at −70° C. until use. […]
# Inhibitors (10 μL working solution, concentrations from 2.5 μM to 100 μM) and pooled plasma (90 μL) were incubated at 37° C. for 5 minutes and then thrombin (200 μL) was added. Clot formation was measured in a coagulometer in duplicate.
# [3] = test system: normal pooled human plasma; experiment: Prothrombin time (PT) coagulation assay; conditions: concentration of inhibitor that doubled the clotting time
# Method: as §1
# An optimal amount of thromboplastin and calcium are added to plasma sample and the time of fibrin clot formation wass measured. PT is a rapid, sensitive screening test for coagulation disorders of the extrinsic pathway. It is well suited for the induction and monitoring of oral anticoagulant therapy, for diagnosing genetic or acquired deficiencies in coagulation factors and checking the synthesis performance of the liver in hepatic diseases. PT is prolonged due to extrinsic coagulation factors deficit or due to the presence of inhibitors.
# Thromboplastin (Thromborel S, Dade/Behring): was dissolved in 4 mL of distilled water. Reagent was at 37° C. prior to use at least 30 minutes. […]
# Inhibitor (10 μL working solution, concentrations from 5 μM to 100 μM) and pooled plasma (90 μL) were incubated at 37° C. for 5 minutes and then Thromborel S (200 μL) was added. Clot formation was measured with a coagulometer in duplicate.
structure (smiles),measurement,setting,value
NC(C(=O)N1CCCC1C(=O)NCC1CCc2n[nH]cc2C1)C(c1ccccc1)c1ccccc1 (stereo not drawn),aPTT,[1],43 µM
same,TT,[2],7.7 µM
same,PT,[3],59.8 µM
